Assay [1] addresses ISCU (iron-sulfur biogenesis / scaffolding protein) (human (endogenous in primary human PAECs)) (UniProt Q9H1K1). The experiment in a line: co-IP; PAEC lysate (cells treated with siGSTP1 or scrambled siRNA; also vehicle or BRD2889 in normoxia or hypoxia), immunoprecipitation with α-ISCU or IgG control, immunoblot for total ISCU, GSTP1 and glutathionylated ISCU. (In western blotting, separated proteins are transferred to a membrane and probed.)

Sequences of proteins named here, by UniProt entry; tags and fusion partners are left off. Residues count along the entry.
UniProt Q9H1K1, residues 35-167: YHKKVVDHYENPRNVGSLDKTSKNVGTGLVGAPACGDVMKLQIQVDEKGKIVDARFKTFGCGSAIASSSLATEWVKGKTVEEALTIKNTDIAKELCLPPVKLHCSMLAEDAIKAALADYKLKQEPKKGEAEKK
UniProt P09211: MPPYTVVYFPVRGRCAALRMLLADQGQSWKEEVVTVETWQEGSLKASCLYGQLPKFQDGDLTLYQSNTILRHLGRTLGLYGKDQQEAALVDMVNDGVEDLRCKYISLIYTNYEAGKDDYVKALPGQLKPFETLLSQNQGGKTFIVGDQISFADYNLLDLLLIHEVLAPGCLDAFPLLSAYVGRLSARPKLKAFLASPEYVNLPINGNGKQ

The target of assay [2] is glutathione S-transferase pi 1 (GSTP1) (human (endogenous in primary human PAECs)) (UniProt P09211). Nature of the assay: co-IP; PAEC lysate (cells treated with siGSTP1 or scrambled siRNA), immunoprecipitation with α-GSTP1 or IgG control, immunoblot for ISCU and GSTP1.

No constants are given. Whether binding was seen depends on the method and setting. In cells and extracts the contact can be indirect. Some results given as binding are weak or reduced against the parent protein; the word gives no strength.

“glutathione S-transferase pi 1 (GSTP1) (from UniProt P09211 1-210) (enzyme)”: the binding result in assay [1] is given as “binds”.
As for “ISCU (iron-sulfur biogenesis / scaffolding protein) (from UniProt Q9H1K1 35-167)”, in assay [2], the binding result is “binds”.

Source of the values: article PMC8528428.
